Paper PMC7819943, “Rice protein-binding microarrays: a tool to detect cis-acting elements near promoter regions in rice”
The other results are listed elsewhere or left out.

biological target: T1, OsSMF1 (Oryza sativa, UniProt Q6ZLB0 1-436); experiment: protein-binding microarray (RPBM); PBS, 2% BSA, 51.3 ng/ul salmon testes DNA, 50 uM zinc acetate, 200 nM TF, 25 C, 1 h; high values mean tight binding; conditions: protein: recombinant; tags: N-terminal polyhistidine and DsRed monomer fusion (pET32a); chain copies: 2; label: CyDye5-dUTP incorporated in the synthesized complementary strand; 3' TTTTT single-stranded linker to array surface; dsDNA, one strand shown
T1 sequence: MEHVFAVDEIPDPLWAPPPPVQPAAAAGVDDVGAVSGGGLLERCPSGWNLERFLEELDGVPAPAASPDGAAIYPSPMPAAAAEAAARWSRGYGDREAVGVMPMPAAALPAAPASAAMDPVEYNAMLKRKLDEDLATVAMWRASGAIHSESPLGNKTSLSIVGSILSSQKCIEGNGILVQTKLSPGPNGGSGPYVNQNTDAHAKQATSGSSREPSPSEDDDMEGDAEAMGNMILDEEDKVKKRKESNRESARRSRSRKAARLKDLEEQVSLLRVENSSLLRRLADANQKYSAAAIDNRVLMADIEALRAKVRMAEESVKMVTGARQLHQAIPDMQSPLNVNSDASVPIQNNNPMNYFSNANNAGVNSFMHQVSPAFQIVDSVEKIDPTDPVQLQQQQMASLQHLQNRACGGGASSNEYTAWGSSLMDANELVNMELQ
How it was run: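 For the binding signal, per-feature fluorescence intensity was read in arbitrary units on an Axon 4000B scanner. Before scanning, a 2% BSA-blocked custom Agilent array made double-stranded with Cy5-dUTP was washed after 1 h at 25 °C with 200 nM protein and 50 µM zinc acetate. The proteins were Ni–NTA-purified transcription factors with N-terminal polyhistidine and DsRed fusions, expressed in E. coli BL21-CodonPlus.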

Question: With “GCGAACAGCCGCCGCTTCCAGTCATCCTCTTTGTGTGAGCCGGAGTCACCTAGTGCAG” as the sequence, how does the binding signal read?
Answer: 3630 fluorescence intensity (a.u.)

Question: How did the binding signal turn out when “CGCCGCCACCACTAGCTCGCTTCATTTCCACCGCACGCACCGGAGTCACCTAGTGCAG” was run?
Answer: 3330 fluorescence intensity (a.u.)

Question: For “GCCAACGCCGTGCCGTGTCCATCTACCGCCGCCCACAACTCGGAGTCACCTAGTGCAG”, which binding signal is on record?
Answer: 3290 fluorescence intensity (a.u.)

Question: Which binding signal does the source give for “TTTCATCCTCTCGTTGTAACACGCAACGTGTTCAAACGTGCGGAGTCACCTAGTGCAG” here?
Answer: 5740 fluorescence intensity (a.u.)

Question: Which binding signal does the source give for “CGCCGCCTCCGCCTCCGCCTCCGCTGCTCGCCGACCGGAGCGGAGTCACCTAGTGCAG” here?
Answer: 4680 fluorescence intensity (a.u.)

Question: With “TGTCGTCCCGTACTACGTCATCTCCAGTCATCTTCTCCCACGGAGTCACCTAGTGCAG” as the sequence, how does the binding signal read?
Answer: 12600 fluorescence intensity (a.u.)

Question: “CTGGCTGACAAGTGGATCCAGTTCCACATGTCAGTGGCAGCGGAGTCACCTAGTGCAG” was tested. Which binding signal did it give?
Answer: 3590 fluorescence intensity (a.u.)

Question: “CCGCGTACGCGTACGTATAACCTCGCGTCTTTACAGTCTACGGAGTCACCTAGTGCAG” was tested. Which binding signal did it give?
Answer: 3650 fluorescence intensity (a.u.)

Question: Which binding signal does the source give for “TGTTTAGATAAGGGGTATAAAGTTTTAGCGTGTCACATTGCGGAGTCACCTAGTGCAG” here?
Answer: 3450 fluorescence intensity (a.u.)

Question: “CAACACCCGTCCGCCAGAGAAGACCATCGTGACGCCACTCCGGAGTCACCTAGTGCAG” was tested. Which binding signal did it give?
Answer: 4880 fluorescence intensity (a.u.)

Question: For “CAGAGGAAATGTGGGGCCCACGGGTCAGTGGGACGTGGCCCGGAGTCACCTAGTGCAG”, which binding signal is on record?
Answer: 4680 fluorescence intensity (a.u.)

Question: “GGCGACGCACCACGTCGGCCGGCCGCCACCGCCGGAGAGGCGGAGTCACCTAGTGCAG” was tested. Which binding signal did it give?
Answer: 3330 fluorescence intensity (a.u.)

Question: For “CATGGTATCTGTGACTCTTTTCGTTGGTCGGTTTGACATGCGGAGTCACCTAGTGCAG”, which binding signal is on record?
Answer: 3740 fluorescence intensity (a.u.)

Question: “ACCGCACCGCGCGGCACGCCCACGCACGCACGCTCCGCCCCGGAGTCACCTAGTGCAG” was tested. Which binding signal did it give?
Answer: 4800 fluorescence intensity (a.u.)

Question: “ACCGCTGGTCTTGGGGTGGCCTGACACGACACGACACGAGCGGAGTCACCTAGTGCAG” was tested. Which binding signal did it give?
Answer: 5250 fluorescence intensity (a.u.)

Question: For “AAACGCGTCCAGCTCATCGTCGCCGGCGCCTCGTTTCACCCGGAGTCACCTAGTGCAG”, which binding signal is on record?
Answer: 8340 fluorescence intensity (a.u.)

Question: Which binding signal does the source give for “TCTCGTAGTTTACAGGTGGAATCTATAATTTGTTTTGTTACGGAGTCACCTAGTGCAG” here?
Answer: 3350 fluorescence intensity (a.u.)

Question: With “AGAGGAGGAAGAAGAGGAGGGGTGACAATGATATGTGGGGCGGAGTCACCTAGTGCAG” as the sequence, how does the binding signal read?
Answer: 5560 fluorescence intensity (a.u.)

Question: “TTCTAATTAATATGTCATTAGCAAATGTTTACTGTACCACCGGAGTCACCTAGTGCAG” was tested. Which binding signal did it give?
Answer: 4380 fluorescence intensity (a.u.)

Question: Which binding signal does the source give for “CTCCTGCGTGGCGTACGCCGCGTCCGACGTCAGGGGAGGCCGGAGTCACCTAGTGCAG” here?
Answer: 7020 fluorescence intensity (a.u.)

Question: For “TCCAGCACCGGCGCCTGCATCAGCACCATCACTGGAGCCGCGGAGTCACCTAGTGCAG”, which binding signal is on record?
Answer: 4230 fluorescence intensity (a.u.)

Question: With “CGCCGGCATCTCCTCCTCCCCACGCCGCAACGTGTCCGCCCGGAGTCACCTAGTGCAG” as the sequence, how does the binding signal read?
Answer: 5630 fluorescence intensity (a.u.)

Question: With “TAGGCCCACACCTAGTCAGCTCAATCGAAATACAACCCACCGGAGTCACCTAGTGCAG” as the sequence, how does the binding signal read?
Answer: 3450 fluorescence intensity (a.u.)

Question: Which binding signal does the source give for “GCACCGGTTTTGATAGTTGAGGGACTTGTTGTATCTGGTTCGGAGTCACCTAGTGCAG” here?
Answer: 29200 fluorescence intensity (a.u.)

Question: How did the binding signal turn out when “AGGTGTAAGACTGCCACGTGTCCTCTCGCCTCCACATTACCGGAGTCACCTAGTGCAG” was run?
Answer: 25800 fluorescence intensity (a.u.)

Question: How did the binding signal turn out when “TCAAAAGAACAATGCCCAAAGTCTTCGTTGCCTTCAATTGCGGAGTCACCTAGTGCAG” was run?
Answer: 3510 fluorescence intensity (a.u.)

Question: With “AGTGCCCCACTCTGGATTTCGATAATTACGTATATGGGTCCGGAGTCACCTAGTGCAG” as the sequence, how does the binding signal read?
Answer: 3280 fluorescence intensity (a.u.)

Question: With “CCCGAGTCTTTAATCACTTTTGCTTACGTGTATGGTTAGGCGGAGTCACCTAGTGCAG” as the sequence, how does the binding signal read?
Answer: 22900 fluorescence intensity (a.u.)

Question: How did the binding signal turn out when “CATGAGGAGGATGCTGACGTCTCGAGGTGAAGGCCGCAATCGGAGTCACCTAGTGCAG” was run?
Answer: 4970 fluorescence intensity (a.u.)

Question: For “CATTCGACGCGTGGCGTCCCACTTGGCGGCGTAGGAGACGCGGAGTCACCTAGTGCAG”, which binding signal is on record?
Answer: 5600 fluorescence intensity (a.u.)

Question: With “GATTCCGTGCATCATTCCGTGCTGACCACATAATGTAGATCGGAGTCACCTAGTGCAG” as the sequence, how does the binding signal read?
Answer: 3830 fluorescence intensity (a.u.)

Question: With “TCTTGCATCATACCTCCTCTTCCGGTATGACTTGCTGAGTCGGAGTCACCTAGTGCAG” as the sequence, how does the binding signal read?
Answer: 3160 fluorescence intensity (a.u.)

Question: How did the binding signal turn out when “AGAGCTTCGCATGACGCCTGCCGTTTCGGCCCATTTGAGCCGGAGTCACCTAGTGCAG” was run?
Answer: 3730 fluorescence intensity (a.u.)

Question: Which binding signal does the source give for “GAGGTGGGCGTGATGATCTCTACAGGCAGCGGCTCGTCGTCGGAGTCACCTAGTGCAG” here?
Answer: 23900 fluorescence intensity (a.u.)

Question: For “CTTATGCCTACAAAGATAGCACATGCTTTGTCTGGCATAGCGGAGTCACCTAGTGCAG”, which binding signal is on record?
Answer: 3690 fluorescence intensity (a.u.)

Question: Which binding signal does the source give for “CCACGTGGATCCCACGCTGAGTCAGCTACCATGTCAGAAACGGAGTCACCTAGTGCAG” here?
Answer: 14400 fluorescence intensity (a.u.)

Question: With “CGTAGAAGAGAGGTCCCATGGTGCAGCTGACCCACCCGAACGGAGTCACCTAGTGCAG” as the sequence, how does the binding signal read?
Answer: 3170 fluorescence intensity (a.u.)

Question: How did the binding signal turn out when “TTTCTAGATTTGGGGTTTGTTTCTTTGGCAGAATCATGTACGGAGTCACCTAGTGCAG” was run?
Answer: 3290 fluorescence intensity (a.u.)

Question: For “TTATTACCACATCGTTTTGCGTGAAACACTTAATCTTTATCGGAGTCACCTAGTGCAG”, which binding signal is on record?
Answer: 3470 fluorescence intensity (a.u.)

Question: How did the binding signal turn out when “ACTTAATTTGGCTCTTTAGGCCTTTACCAACGTGTCACTCCGGAGTCACCTAGTGCAG” was run?
Answer: 6080 fluorescence intensity (a.u.)

Question: For “TCTAAGTGGTAGATGCCGTCGTCATTGTTGTAGTAGATGGCGGAGTCACCTAGTGCAG”, which binding signal is on record?
Answer: 7190 fluorescence intensity (a.u.)

Question: “CCTTGGCCTTAATTATTGACGTAGTACGTACACTTGATGCCGGAGTCACCTAGTGCAG” was tested. Which binding signal did it give?
Answer: 4250 fluorescence intensity (a.u.)

Question: For “ATCCTAGGTGGAACAGACACGTCATCTTGCAGGTGGACCCCGGAGTCACCTAGTGCAG”, which binding signal is on record?
Answer: 20500 fluorescence intensity (a.u.)

Question: For “GGCGACCGTGTGAGCCTCTGAATAATCCCACATTGCTTAGCGGAGTCACCTAGTGCAG”, which binding signal is on record?
Answer: 3380 fluorescence intensity (a.u.)

Question: How did the binding signal turn out when “CGGGGCGAGGCGACAGGTACGCGTGGCACGGCTGCTTTCCCGGAGTCACCTAGTGCAG” was run?
Answer: 5920 fluorescence intensity (a.u.)

Question: How did the binding signal turn out when “CCCTCCACATGACATCACCCCTCGCGCGGCTGCTGCTCTCCGGAGTCACCTAGTGCAG” was run?
Answer: 6690 fluorescence intensity (a.u.)

Question: For “AAGCCAGCTATTACTAGACCAGACTAATCGCTTGACCTGTCGGAGTCACCTAGTGCAG”, which binding signal is on record?
Answer: 10100 fluorescence intensity (a.u.)

Question: “AAATAACAAAATTACAAGTTTAACATAAATATGTAATCACCGGAGTCACCTAGTGCAG” was tested. Which binding signal did it give?
Answer: 21200 fluorescence intensity (a.u.)

Question: Which binding signal does the source give for “TTTCCTTCGCTAGGCCGAAGCCTAGCTCTGTCACCATGTCCGGAGTCACCTAGTGCAG” here?
Answer: 3530 fluorescence intensity (a.u.)

Question: “AACGTGAGAGCTTCCATGCTTATATATTACTTACCCCAGCCGGAGTCACCTAGTGCAG” was tested. Which binding signal did it give?
Answer: 3440 fluorescence intensity (a.u.)

Question: For “CCTTCACGTATTGACTAGATCTGGTTAGTCAGACACCTCTCGGAGTCACCTAGTGCAG”, which binding signal is on record?
Answer: 4780 fluorescence intensity (a.u.)

Question: With “GATACATGTATGTATGACAGGTGCGACCAAGTATAAATTGCGGAGTCACCTAGTGCAG” as the sequence, how does the binding signal read?
Answer: 3240 fluorescence intensity (a.u.)

Question: “GTCGCCACTGCCCACCTCATTTAGCTTCGCGGGTTGCTTCCGGAGTCACCTAGTGCAG” was tested. Which binding signal did it give?
Answer: 3360 fluorescence intensity (a.u.)

Question: With “GCACCAAACCGTACCAAACCAGACTAACGGCCCATGCAACCGGAGTCACCTAGTGCAG” as the sequence, how does the binding signal read?
Answer: 8760 fluorescence intensity (a.u.)
